Patent publication US8288316B2, “N-(1,2,5-oxadiazol-3-yl)benzamides and their use as herbicides” (Bayer Cropscience AG, priority 2009, dated 2012)
Some results were stated once for a whole list of compounds, not compound by compound.

Tests used:
Assay type in all cases: in vivo
Echinochloa crus-galli = assay: Pre-emergence herbicidal action against harmful plants; details: application rate 80 g/ha, visual assessment after 3 weeks vs untreated controls (100% = plants have died)
Amaranthus retroflexus = assay: Post-emergence herbicidal action against harmful plants; details: one-leaf stage, application rate 80 g/ha, rated visually after about 3 weeks vs untreated controls (100% = plants have died)
Veronica persica = assay: Pre-emergence herbicidal action against harmful plants; details: application rate 80 g/ha, visual assessment after 3 weeks vs untreated controls (100% = plants have died)
Viola tricolor = assay: Post-emergence herbicidal action against harmful plants; details: one-leaf stage, application rate 80 g/ha, rated visually after about 3 weeks vs untreated controls (100% = plants have died)

Cc1nonc1NC(=O)c1ccc(S(C)(=O)=O)c(S(C)(=O)=O)c1C [1-53]
at least 80%: herbicidal activity in percent against Echinochloa crus-galli (Echinochloa crus-galli) | herbicidal activity in percent against Amaranthus retroflexus (Amaranthus retroflexus) | herbicidal activity in percent against Veronica persica (Veronica persica) | herbicidal activity in percent against Viola tricolor (Viola tricolor)
